Assay results: patent US9962360B2, “Compositions and methods for enhancing hair growth, promoting skin regeneration, and wound healing” (The Hospital for Sick Children, priority 2014, dated 2018)

Test system: SKPs
Test: Microarray and GO enrichment analysis of SKPs acutely treated for 24 hours
Conditions: SKPs treated for 24 hours

**Q.** Which “number of differentially expressed genes, control versus treated” value does the source give for trimebutine maleate [TM] here?
**A.** 545 genes

**Q.** With `CCCCC[C@H](O)/C=C/[C@H]1[C@H](O)CC(=O)[C@@H]1CCCCCCC(=O)O` [Alp, alprostadil] as the compound, how does the “number of differentially expressed genes, control versus treated” value read?
**A.** 457 genes
